Data as given in PubChem BioAssay AID504784 (Drosophila RNAi Screening Center, 2011)

Test: 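Fly genes whose silencing alters how much lipid cells keep in droplets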 (primary screen)
System: Drosophila Kc167 embryonic cells
Reagent: long dsRNA against Drosophila genes, about 250 ng dsRNA per well
Duration: 4 days
Conditions: cells fed 400 µM oleic acid bound to BSA
Read-out: 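Cells imaged and segmented; ratio of lipid droplet area to nuclear area, log-transformed, then normalised as a B-score over the screen; higher means more stored lipid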
Direction: droplet/nuclear area B-score: higher = more stored lipid (overstorage)
The deposit covers about 17,000 reagents; below is an unselected part of those that have a named target and a result. 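Each column is one replicate's B-score; the combined score over replicates was not deposited, so single values may mislead.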 Reagents against one gene are numbered here. A plus sign joins genes that one reagent is predicted to hit. No sequences are given here.

no.	predicted target	reagent	droplet/nuclear area B-score, replicate 1	droplet/nuclear area B-score, replicate 2	droplet/nuclear area B-score, replicate 3
1	Ns4	1	-1.08		
2	CG9757	1	2.62	2.65	
3	CG9757	2	0.361	-2.01	
4	CG18094	1	0.822	1.34	
5	CG1239	1	0.033	-0.213	
6	Oscillin	1	3.26	-0.726	0.238
7	CG16782	1	-0.66	0.351	
8	GluRIIB	1	-1.04	0.306	
9	CG30457	1	-0.615	-1.25	-1.52
10	TotZ	1	-2.06	0.343	
11	CG30378	1	0.0419	-0.192	
12	RPA1	1	-3.7	-0.158	
13	CG31220	1	0.491	0.381	
14	CG13022	1	-0.433	1.19	
15	Vha13	1	0.774	-4.08	
16	CG3386	1	1.22	2.04	
17	mTTF	1	2.25	2.02	
18	CG33221 (retired record)	1	-0.248	-0.239	
19	arx	1	0.17	1.01	1.74
20	Cka	1	0.229	0.695	
21	Cka	2	0.0157	-1	
22	CG11313	1	0.173	0.0141	
23	CadN2 + CG42830	1	0.419	-0.0353	
24	CadN2 + CG42830	2	-0.00197	-1.68	
25	CadN2 + CG42830	3	-0.971	0.00049	
26	Galphaq	1	-0.282	-0.432	
27	mRpL23	1	1.1	0.0283	
28	IP3K1	1	-0.261	-0.569	
29	disco-r	1	-2.11	5.58	
30	disco-r	2	-0.259	-0.287	
31	CG7120	1	-0.193	0.638	
32	CG43980	1	0.0338	1.93	
33	CG43980	2	0.201	0.228	
34	CG33770	1	0.0743	-0.652	
35	CG7907	1	0.563	-0.369	
36	corn	1	-0.238	-0.0507	
37	corn	2	0.263	-0.165	
38	Dhc16F	1	-0.828	-0.00109	
39	CG14879	1	-0.139	1.73	
40	obst-A	1	-0.25	-0.185	
41	wnd	1	-1	-0.385	-1.63
42	wnd	2	-0.692	0.192	
43	CG14265	1	-1.21	0.179	
44	CG31206	1	-0.956	0.0323	
45	CG13436	1	0.466	-0.463	
46	eIF4G2	1	2.6	-0.0346	
47	eIF4G2	2	-0.0956	-1.82	
48	ClpX	1	-0.518	2.49	
49	ND-B14.5AL	1	-0.677	0.0726	
50	CG43773	1	0.899	4.8	
51	CG43773	2	-0.0571	-0.185	
52	Polr2I	1	5.38	0.572	
53	CG1105	1	1.58	-0.00648	
54	Pus7	1	-0.549	-1.33	
55	ZIPIC	1	0.0605		
56	CG1113	1	-3.44	-3.06	
57	Nup75	1		-0.522	
58	sau	1	1.07	-1.35	
59	CG15719	1	-1.46	-0.164	-2.25
60	p23	1	-0.521	3.23	
61	CG5098	1	1.84	-1.02	
62	Vago	1	1.83	0.835	-0.916
63	Pkc98E	1	-0.274		
64	clu	1	-0.792	1.31	
65	Nup35	1	1.06	0.279	
66	Grip128	1	-0.251	-0.106	-1.45
67	Cyp12e1	1	0.216	-0.242	
68	CG2059	1	-0.657	-0.225	
69	Brr2	1	-2.48	-0.936	0.213
70	Gk1	1	1.02	0.3	
71	Gk1	2	-1.82	-0.711	
72	Bem46	1	-0.178	0.665	
73	nes	1	0.116	0.464	
74	CG2533	1	-0.048	0.688	0.655
75	CG13995	1	0.933	0.352	0.67
76	CG13995	2	-1.26	-2.53	
77	CG13995	3	1.53	0.811	
78	gwl	1	1.18	-1.24	
79	Polr2B	1	0.719	-0.12	
80	CG3650	1	-0.932	-0.157	
81	CG32833	1	0.674	-0.317	
82	mRpL13	1	2.84	-1.02	
83	CG9084	1	-0.0518	-0.209	
